The assay has as its target M. smegmatis PKS13 residues 1-1042 (MsPKS13ΔC) (M. smegmatis). The experiment in a line: SEC; Superdex 200, 20 mM Tris pH 8.0, 150 mM NaCl, 0.4 ml/min; MsFadD32 pre-incubated with MsPKS13ΔC, and each protein alone, injected; peak fractions analysed by SDS-PAGE; both purified.

No constants are given. Whether binding was seen depends on the method and setting. Binding calls can cover weak binding; strength is not graded here. Where a sequence is shown, tags or fusion partners need not be part of it.

B1: full-length Mycobacterium smegmatis FadD32 (fatty acid degradation protein D32) (enzyme, UniProt A0R618 1-630)
chain: MPFHNPFIKDGQIKFPDGSSIVAHVERWAKVRGDKLAYRFLDFSTERDGVPRDLTWAQFSARNRAVAARLQQVTQPGDRVAILCPQNLDYLVAFFGALYAGRIAVPLFDPSEPGHVGRLHAVLDNCHPSAILTTTEAAEGVRKFFRTRPANQRPRVIAVDAVPDDVASTWVNPDEPDETTIAYLQYTSGSTRIPTGVQITHLNLATNVVQVIEALEGEEGDRGLSWLPFFHDMGLITALLAPMIGHYFTFMTPAAFVRRPERWIRELARKEGDTGGTISVAPNFAFDHAAARGVPKPGSPPLDLSNVKAVLNGSEPISAATVRRFNEAFGPFGFPPKAIKPSYGLAEATLFVSTTPSAEEPKIITVDRDQLNSGRIVEVDADSPKAVAQASAGKVGIAEWAVIVDAESATELPDGQVGEIWISGQNMGTGYWGKPEESVATFQNILKSRTNPSHAEGATDDATWVRTGDYGAFYDGDLYITGRVKDLVIIDGRNHYPQDLEYSAQEASKAIRTGYVAAFSVPANQLPDEVFENAHSGIKRDPDDTSEQLVIVAERAPGAHKLDIGPITDDIRAAIAVRHGVTVRDVLLTAAGAIPRTSSGKIGRRACRAAYLDGSLRAGKVANDFPDATD
For the molecule B1, the binding result is “binds”.

The record behind these values is paper PMC4667280, “Crystal structure of FadD32, an enzyme essential for mycolic acid biosynthesis in mycobacteria” (Scientific Reports, 2015).
